Results are given in words; binding and its absence hold for the method and conditions named.
Key:
Assay in all cases: two-hybrid; yeast two-hybrid; told only in the discussion, no conditions, constructs or orientation given
[1] = molecular target: T1, OsCRC1 (rice) (UniProt Q7XK25)
T1 sequence: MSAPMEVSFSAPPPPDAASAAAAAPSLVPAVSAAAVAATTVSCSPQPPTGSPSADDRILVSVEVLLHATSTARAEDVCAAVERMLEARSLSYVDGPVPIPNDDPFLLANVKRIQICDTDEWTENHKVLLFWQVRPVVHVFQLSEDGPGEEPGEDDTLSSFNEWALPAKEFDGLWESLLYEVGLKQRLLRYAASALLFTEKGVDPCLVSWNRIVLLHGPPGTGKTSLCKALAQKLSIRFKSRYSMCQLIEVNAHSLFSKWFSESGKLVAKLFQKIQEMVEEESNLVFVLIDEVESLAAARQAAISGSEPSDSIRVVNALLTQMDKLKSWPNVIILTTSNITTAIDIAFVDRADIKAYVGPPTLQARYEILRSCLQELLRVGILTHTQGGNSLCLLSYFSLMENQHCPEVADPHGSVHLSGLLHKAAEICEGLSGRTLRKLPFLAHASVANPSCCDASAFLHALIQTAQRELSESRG

[2] = molecular target: T2, OsPAIR3 (rice) (UniProt B9G5N1)
T2 sequence: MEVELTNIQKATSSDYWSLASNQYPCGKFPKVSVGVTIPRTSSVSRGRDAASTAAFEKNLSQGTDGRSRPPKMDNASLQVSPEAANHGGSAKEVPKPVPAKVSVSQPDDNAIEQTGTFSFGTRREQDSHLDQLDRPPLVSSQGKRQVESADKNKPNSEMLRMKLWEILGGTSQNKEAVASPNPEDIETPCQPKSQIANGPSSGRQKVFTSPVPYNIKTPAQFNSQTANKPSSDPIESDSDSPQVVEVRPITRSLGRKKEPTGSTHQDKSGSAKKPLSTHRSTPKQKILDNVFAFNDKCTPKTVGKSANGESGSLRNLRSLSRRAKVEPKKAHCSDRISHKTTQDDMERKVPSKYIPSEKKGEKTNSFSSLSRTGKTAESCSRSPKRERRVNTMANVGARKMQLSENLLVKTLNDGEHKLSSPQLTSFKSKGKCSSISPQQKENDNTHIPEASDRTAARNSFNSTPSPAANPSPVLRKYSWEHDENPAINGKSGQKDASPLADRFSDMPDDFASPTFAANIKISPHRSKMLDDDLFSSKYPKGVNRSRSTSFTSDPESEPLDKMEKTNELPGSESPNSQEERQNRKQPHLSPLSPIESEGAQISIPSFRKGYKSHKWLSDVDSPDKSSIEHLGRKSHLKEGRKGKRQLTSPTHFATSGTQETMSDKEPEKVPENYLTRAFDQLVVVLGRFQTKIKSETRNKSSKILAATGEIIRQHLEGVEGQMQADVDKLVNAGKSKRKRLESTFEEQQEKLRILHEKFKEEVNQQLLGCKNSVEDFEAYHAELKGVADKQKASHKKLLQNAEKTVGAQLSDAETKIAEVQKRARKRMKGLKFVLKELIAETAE

[3] = molecular target: T3, OsZEP1 (rice) (UniProt Q7FAD5)
T3 sequence: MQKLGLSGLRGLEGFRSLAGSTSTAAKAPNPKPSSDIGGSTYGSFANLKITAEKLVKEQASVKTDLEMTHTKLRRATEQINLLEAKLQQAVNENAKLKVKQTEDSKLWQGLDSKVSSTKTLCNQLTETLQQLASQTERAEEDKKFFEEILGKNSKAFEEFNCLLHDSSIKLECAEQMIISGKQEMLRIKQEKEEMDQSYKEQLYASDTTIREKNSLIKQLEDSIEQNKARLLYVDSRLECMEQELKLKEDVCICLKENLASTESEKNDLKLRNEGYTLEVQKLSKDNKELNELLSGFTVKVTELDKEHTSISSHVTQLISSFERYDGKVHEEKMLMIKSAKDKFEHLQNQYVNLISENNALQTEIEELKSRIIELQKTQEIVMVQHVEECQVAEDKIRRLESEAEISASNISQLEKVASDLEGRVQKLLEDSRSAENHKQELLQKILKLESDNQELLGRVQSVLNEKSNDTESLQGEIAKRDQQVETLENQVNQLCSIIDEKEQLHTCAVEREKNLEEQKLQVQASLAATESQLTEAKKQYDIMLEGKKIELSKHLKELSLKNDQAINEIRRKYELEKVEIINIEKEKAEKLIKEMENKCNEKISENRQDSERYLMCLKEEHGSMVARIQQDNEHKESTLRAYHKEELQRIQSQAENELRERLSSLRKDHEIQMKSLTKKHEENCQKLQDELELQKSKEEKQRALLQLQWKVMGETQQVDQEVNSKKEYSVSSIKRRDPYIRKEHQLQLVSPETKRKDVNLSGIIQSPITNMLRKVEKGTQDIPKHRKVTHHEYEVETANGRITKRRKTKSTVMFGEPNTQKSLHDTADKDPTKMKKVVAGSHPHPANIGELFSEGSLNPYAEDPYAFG

Measured: binding

OsBVF1 (Bivalent Formation 1) (rice (Oryza sativa L.))
no binding: [1] | [2] | [3]

— paper PMC5447885
